Measured values: patent publication US20150010475A1, “CRLF-2 BINDING PEPTIDES, PROTOCELLS AND VIRAL-LIKE PARTICLES USEFUL IN THE TREATMENT OF CANCER, INCLUDING ACUTE LYMPHOBLASTIC LEUKEMIA (ALL)” (STC. UNM, priority 2011, published 2015)
For at least one compound, name, drawing or mass did not settle the structure.

Tested on: high-risk ALL
Experiment: Drug combination testing against high-risk ALL

CO[C@H]1C[C@@H]2CC[C@@H](C)[C@@](O)(O2)C(=O)C(=O)N2CCCC[C@H]2C(=O)O[C@H]([C@H](C)C[C@@H]2CC[C@@H](O)[C@H](OC)C2)CC(=O)[C@H](C)/C=C(\C)[C@@H](O)[C@@H](OC)C(=O)[C@H](C)C[C@H](C)/C=C/C=C/C=C/1C [rapamycin]
interaction with DOX: synergistic with DOX
